In test [1] the target is T1, Flag-ZBP1 (porcine) (porcine).
T1 sequence: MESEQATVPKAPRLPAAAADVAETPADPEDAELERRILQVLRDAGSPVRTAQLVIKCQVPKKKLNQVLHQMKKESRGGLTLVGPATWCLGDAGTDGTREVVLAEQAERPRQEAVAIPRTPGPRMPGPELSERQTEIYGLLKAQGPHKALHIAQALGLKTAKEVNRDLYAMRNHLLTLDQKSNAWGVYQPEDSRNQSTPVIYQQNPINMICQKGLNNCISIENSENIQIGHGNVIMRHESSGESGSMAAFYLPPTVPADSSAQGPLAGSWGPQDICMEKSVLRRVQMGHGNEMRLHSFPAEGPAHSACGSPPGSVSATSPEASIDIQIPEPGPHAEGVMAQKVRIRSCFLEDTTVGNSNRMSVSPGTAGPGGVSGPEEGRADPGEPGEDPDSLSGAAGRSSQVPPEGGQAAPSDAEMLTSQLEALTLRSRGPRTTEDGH
The test is described as follows: co-IP; 293T cells co-transfected for 48 h; lysates with 2 μg of specific primary antibodies overnight at 4 °C, Protein A/G magnetic beads, 3 washes; Western blot. For orientation: A western blot detects proteins with antibodies after separation by electrophoresis.

Amino acid sequences for entries named in this document (tags omitted).
UniProt A0A385XRK7: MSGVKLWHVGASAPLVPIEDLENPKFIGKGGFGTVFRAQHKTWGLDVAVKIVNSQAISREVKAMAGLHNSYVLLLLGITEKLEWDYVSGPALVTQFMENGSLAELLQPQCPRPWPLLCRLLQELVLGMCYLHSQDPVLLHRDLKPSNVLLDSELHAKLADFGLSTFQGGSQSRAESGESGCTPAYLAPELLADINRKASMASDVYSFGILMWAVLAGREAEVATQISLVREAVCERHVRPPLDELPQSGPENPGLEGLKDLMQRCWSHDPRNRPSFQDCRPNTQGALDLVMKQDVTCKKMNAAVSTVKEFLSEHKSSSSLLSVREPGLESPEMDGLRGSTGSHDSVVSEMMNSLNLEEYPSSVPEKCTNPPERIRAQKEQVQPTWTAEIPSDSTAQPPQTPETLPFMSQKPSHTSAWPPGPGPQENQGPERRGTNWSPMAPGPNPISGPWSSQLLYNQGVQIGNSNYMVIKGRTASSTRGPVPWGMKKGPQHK

Test [2] deals with RIPK3, endogenous in porcine granulosa cells (porcine (endogenous in granulosa cells)). The test is described as follows: SEC; lysate of granulosa cells from porcine atretic follicles (20 mmol/L Tris, 150 mmol/L NaCl, 1% Triton X-100) on Superose 6 Increase 10/300 GL in PBS pH 7.4, 4 °C; fractions analysed by Western blotting.
Test [3] addresses Myc-RIPK3 (porcine) (porcine). The test is described as follows: co-IP; 293T cells co-transfected for 48 h; lysates with 2 μg of specific primary antibodies overnight at 4 °C, Protein A/G magnetic beads, 3 washes; Western blot.

These are yes or no findings as the source states them, for the method shown. For part of these data: In cells and extracts the contact can be indirect. Some results given as binding are weak or reduced against the parent protein; the word gives no strength. For part of these data: Tags and fused reporters may be left off the sequences shown.

For “Myc-RIPK3 (porcine) (from UniProt A0A385XRK7 1-493)”, in test [1], the binding entry was “binds”.

B1: ZBP1, endogenous in porcine granulosa cells (protein, UniProt A0A288CFW7 1-438)
chain: MESEQATVPKAPRLPAAAADVAETPADPEDAELERRILQVLRDAGSPVRTAQLVIKCQVPKKKLNQVLHQMKKESRGGLTLVGPATWCLGDAGTDGTREVVLAEQAERPRQEAVAIPRTPGPRMPGPELSERQTEIYGLLKAQGPHKALHIAQALGLKTAKEVNRDLYAMRNHLLTLDQKSNAWGVYQPEDSRNQSTPVIYQQNPINMICQKGLNNCISIENSENIQIGHGNVIMRHESSGESGSMAAFYLPPTVPADSSAQGPLAGSWGPQDICMEKSVLRRVQMGHGNEMRLHSFPAEGPAHSACGSPPGSVSATSPEASIDIQIPEPGPHAEGVMAQKVRIRSCFLEDTTVGNSNRMSVSPGTAGPGGVSGPEEGRADPGEPGEDPDSLSGAAGRSSQVPPEGGQAAPSDAEMLTSQLEALTLRSRGPRTTEDGH
As for B1, in test [2], the binding entry is on record as “binds”.

B2: Flag-ZBP1 (porcine) (protein, UniProt A0A288CFW7 1-438)
chain: MESEQATVPKAPRLPAAAADVAETPADPEDAELERRILQVLRDAGSPVRTAQLVIKCQVPKKKLNQVLHQMKKESRGGLTLVGPATWCLGDAGTDGTREVVLAEQAERPRQEAVAIPRTPGPRMPGPELSERQTEIYGLLKAQGPHKALHIAQALGLKTAKEVNRDLYAMRNHLLTLDQKSNAWGVYQPEDSRNQSTPVIYQQNPINMICQKGLNNCISIENSENIQIGHGNVIMRHESSGESGSMAAFYLPPTVPADSSAQGPLAGSWGPQDICMEKSVLRRVQMGHGNEMRLHSFPAEGPAHSACGSPPGSVSATSPEASIDIQIPEPGPHAEGVMAQKVRIRSCFLEDTTVGNSNRMSVSPGTAGPGGVSGPEEGRADPGEPGEDPDSLSGAAGRSSQVPPEGGQAAPSDAEMLTSQLEALTLRSRGPRTTEDGH
Regarding B2, the binding entry in test [3] was “binds”.

The values are drawn from paper PMC11536665.
